No constants are given. Whether binding was seen depends on the method and setting. In cells and extracts the contact can be indirect. Tags and fused reporters may be left off the sequences shown.
Assays:
[1] = target: PoptrGNOMa-YFP (Populus trichocarpa); experiment: co-IP
[2] = target: PoptrGNOMb-YFP (Populus trichocarpa); experiment: co-IP

B1: AtGNL1-Myc (protein, UniProt Q9FLY5 1-1443)
chain: MGYQNHPSGSNSFHGEFKRCHSKPSKGAVASMINSEIGAVLAVMRRNVRWGVRYIADDDQLEHSLIHSLKELRKQIFSWQSNWQYVDPRLYIQPFLDVILSDETGAPITGVALSSVYKILTLEVFTLETVNVGEAMHIIVDAVKSCRFEVTDPASEEVVLMKILQVLLACVKSKASNGLSNQDICTIVNTCLRVVHQSSSKSELLQRIARHTMHELIRCIFSQLPFISPLANECELHVDNKVGTVDWDPNSGEKRVENGNIASISDTLGTDKDDPSSEMVIPETDLRNDEKKTEVSDDLNAAANGENAMMAPYGIPCMVEIFHFLCTLLNVGENGEVNSRSNPIAFDEDVPLFALGLINSAIELGGPSFREHPKLLTLIQDDLFCNLMQFGMSMSPLILSTVCSIVLNLYLNLRTELKVQLEAFFSYVLLRIAQSKHGSSYQQQEVAMEALVDLCRQHTFIAEVFANFDCDITCSNVFEDVSNLLSKNAFPVNGPLSAMHILALDGLISMVQGMAERVGEELPASDVPTHEERYEEFWTVRCENYGDPNFWVPFVRKVKHIKKKLMLGADRFNRDPNKGLQYLQGVHLLPEKLDPKSVACFFRYTCGLDKNVMGDFLGNHDQFCIQVLHEFAKTFDFQNMNLATALRLFVGTFKLSGEAQKIHRVLEAFSERYYEQSPHILIDKDAAFVLAYSIILLNTDQHNAQVKTRMTEEDFIRNNRTINGGADLPREYLSEIYHSIRHSEIQMDEDKGTGFQLMTASRWISVIYKSKETSPYIQCDAASHLDRDMFYIVSGPTIAATSVVFEQAEQEDVLRRCIDGLLAIAKLSAYYHLNSVLDDLVVSLCKFTPFFAPLSADEAVLVLGEDARARMATEAVFLIANKYGDYISAGWKNILECVLSLNKLHILPDHIASDAADDPELSTSNLEQEKPSANPVPVVSQSQPSAMPRKSSSFIGRFLLSFDSEETKPLPSEEELAAYKHARGIVKDCHIDSIFSDSKFLQAESLQQLVNSLIRASGKDEASSVFCLELLIAVTLNNRDRILLIWPTVYEHILGIVQLTLTPCTLVEKAVFGVLKICQRLLPYKENLTDELLKSLQLVLKLKAKVADAYCERIAQEVVRLVKANASHVRSRTGWRTIISLLSITARHPEASEAGFEALRFIMSEGAHLLPSNYELCLDAASHFAESRVGEVDRSISAIDLMSNSVFCLARWSQEAKNSIGETDAMMKLSEDIGKMWLKLVKNLKKVCLDQRDEVRNHAISMLQRAIAGADGIMLPQPLWFQCFDSAVFILLDDVLTFSIENSRKTLKKTVEETLVLATKLMSKAFLQSLQDISQQPSFCRLWVGVLNRLETYMSTEFRGKRSEKVNELIPELLKNTLLVMKATGVLLPGDDIGSDSFWQLTWLHVNKISPSLQSEVFPQEELDQFQRRNAKPEDPPVPGNEV
- binding [1]: no binding
- binding [2]: no binding

From publication doi:10.1101/2025.06.03.657657
